Results are given in words; binding and its absence hold for the method and conditions named. In cells and extracts the contact can be indirect. Some entries that bind do so weakly or less than the wild type. Where a sequence is shown, tags or fusion partners need not be part of it. Values belong to the binder of their own block, whether it stands above or below them.
How the values were obtained:
Assay in all cases: co-IP
[1] = biological target: T1, BARELY ANY MERISTEM 3 (BAM3)-GFP (Arabidopsis thaliana) (UniProt O65440)
T1 sequence: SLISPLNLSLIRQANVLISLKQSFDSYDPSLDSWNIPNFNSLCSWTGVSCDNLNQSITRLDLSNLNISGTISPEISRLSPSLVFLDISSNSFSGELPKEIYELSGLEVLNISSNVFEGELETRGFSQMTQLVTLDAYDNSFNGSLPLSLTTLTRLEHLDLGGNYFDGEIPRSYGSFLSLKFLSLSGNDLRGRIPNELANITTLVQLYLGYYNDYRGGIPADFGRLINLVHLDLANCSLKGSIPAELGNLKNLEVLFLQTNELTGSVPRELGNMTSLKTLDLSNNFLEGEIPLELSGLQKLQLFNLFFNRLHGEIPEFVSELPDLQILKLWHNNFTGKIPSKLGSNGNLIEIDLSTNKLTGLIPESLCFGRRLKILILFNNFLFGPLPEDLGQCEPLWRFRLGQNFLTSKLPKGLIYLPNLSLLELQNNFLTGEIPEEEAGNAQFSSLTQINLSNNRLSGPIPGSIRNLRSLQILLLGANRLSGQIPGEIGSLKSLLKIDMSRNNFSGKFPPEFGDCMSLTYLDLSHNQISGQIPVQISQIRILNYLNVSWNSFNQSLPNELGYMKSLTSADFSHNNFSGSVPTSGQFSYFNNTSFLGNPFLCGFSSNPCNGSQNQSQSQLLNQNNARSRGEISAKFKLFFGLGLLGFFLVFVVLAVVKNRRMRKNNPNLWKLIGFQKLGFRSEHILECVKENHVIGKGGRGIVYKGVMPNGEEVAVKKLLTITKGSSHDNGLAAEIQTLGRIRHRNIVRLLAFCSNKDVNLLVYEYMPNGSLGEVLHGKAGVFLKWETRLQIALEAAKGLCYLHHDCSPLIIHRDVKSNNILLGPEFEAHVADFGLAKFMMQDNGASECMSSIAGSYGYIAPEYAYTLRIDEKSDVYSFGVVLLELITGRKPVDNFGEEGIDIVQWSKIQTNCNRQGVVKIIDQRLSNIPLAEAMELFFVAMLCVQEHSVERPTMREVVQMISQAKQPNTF

Protein sequences, listed by entry. Tags and fused reporters are not part of them. Residues count along the entry.
UniProt C0LGT6, residues 25-1031: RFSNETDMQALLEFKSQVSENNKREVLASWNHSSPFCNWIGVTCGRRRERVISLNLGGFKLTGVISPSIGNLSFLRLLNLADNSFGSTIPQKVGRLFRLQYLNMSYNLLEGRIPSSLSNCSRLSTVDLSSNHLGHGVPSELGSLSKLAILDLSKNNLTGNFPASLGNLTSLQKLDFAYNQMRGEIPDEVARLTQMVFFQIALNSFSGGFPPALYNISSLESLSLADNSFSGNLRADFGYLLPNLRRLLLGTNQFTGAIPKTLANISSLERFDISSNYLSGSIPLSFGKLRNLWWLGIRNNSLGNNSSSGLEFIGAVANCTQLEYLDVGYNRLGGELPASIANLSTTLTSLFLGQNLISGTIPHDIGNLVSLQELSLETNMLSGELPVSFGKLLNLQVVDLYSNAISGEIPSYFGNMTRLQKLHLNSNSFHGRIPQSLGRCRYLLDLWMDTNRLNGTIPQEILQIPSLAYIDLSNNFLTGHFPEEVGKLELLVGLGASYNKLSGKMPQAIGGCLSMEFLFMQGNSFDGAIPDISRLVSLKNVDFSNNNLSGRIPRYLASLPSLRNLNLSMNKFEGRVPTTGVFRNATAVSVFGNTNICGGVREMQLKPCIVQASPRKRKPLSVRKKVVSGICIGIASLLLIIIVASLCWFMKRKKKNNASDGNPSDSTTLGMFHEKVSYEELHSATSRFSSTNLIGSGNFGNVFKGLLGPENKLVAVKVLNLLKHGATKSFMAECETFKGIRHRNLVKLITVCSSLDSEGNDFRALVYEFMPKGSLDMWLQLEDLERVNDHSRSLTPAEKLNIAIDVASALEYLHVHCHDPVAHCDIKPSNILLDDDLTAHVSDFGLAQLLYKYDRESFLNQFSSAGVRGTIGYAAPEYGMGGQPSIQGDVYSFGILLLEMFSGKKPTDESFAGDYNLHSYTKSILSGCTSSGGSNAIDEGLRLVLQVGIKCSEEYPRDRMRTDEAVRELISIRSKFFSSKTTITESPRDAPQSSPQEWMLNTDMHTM

[2] = biological target: T2, CLAVATA 1 (CLV1), GFP-tagged (Arabidopsis thaliana) (UniProt Q9SYQ8)
T2 sequence: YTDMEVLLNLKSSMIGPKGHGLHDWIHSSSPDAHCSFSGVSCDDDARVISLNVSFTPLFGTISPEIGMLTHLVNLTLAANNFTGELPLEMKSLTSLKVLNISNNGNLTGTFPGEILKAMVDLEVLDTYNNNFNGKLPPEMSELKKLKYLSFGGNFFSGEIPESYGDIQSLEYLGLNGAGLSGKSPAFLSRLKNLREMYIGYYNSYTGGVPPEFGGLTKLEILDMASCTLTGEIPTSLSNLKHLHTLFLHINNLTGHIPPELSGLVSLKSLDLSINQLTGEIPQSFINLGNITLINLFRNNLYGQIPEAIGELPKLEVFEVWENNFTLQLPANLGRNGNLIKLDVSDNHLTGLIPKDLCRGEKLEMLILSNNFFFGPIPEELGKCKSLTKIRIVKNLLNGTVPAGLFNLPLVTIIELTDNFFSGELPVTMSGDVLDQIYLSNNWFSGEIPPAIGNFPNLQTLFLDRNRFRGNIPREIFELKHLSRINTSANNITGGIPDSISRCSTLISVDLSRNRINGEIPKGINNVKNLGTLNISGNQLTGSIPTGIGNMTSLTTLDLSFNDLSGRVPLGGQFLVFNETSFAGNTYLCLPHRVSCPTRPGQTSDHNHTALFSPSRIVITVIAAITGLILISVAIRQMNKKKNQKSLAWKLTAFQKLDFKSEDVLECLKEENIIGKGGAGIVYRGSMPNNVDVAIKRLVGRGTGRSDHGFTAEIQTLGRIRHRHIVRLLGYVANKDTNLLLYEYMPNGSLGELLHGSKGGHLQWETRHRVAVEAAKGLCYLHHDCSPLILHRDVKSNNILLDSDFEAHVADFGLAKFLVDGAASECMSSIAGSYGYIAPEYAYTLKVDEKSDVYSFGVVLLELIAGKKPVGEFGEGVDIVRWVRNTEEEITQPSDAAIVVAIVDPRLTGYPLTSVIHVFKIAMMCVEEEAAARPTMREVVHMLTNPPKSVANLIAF

[3] = biological target: ELONGATION FACTOR TU RECEPTOR (EFR)-GFP (Arabidopsis thaliana) (UniProt C0LGT6)
[4] = biological target: … SENSING 2 (FLS2)-GFP (Arabidopsis thaliana) (UniProt Q9FL28)

binding [1]: binds
binding [2]: binds
B1: PO… (POL), HA-tagged (enzyme, UniProt Q8RWN7 1-856)
chain: MGNGTSRVVGCFVPSNDKNGVDLEFLEPLDEGLGHSFCYVRPSIFESPDITPSNSERFTIDSSTIDSETLTGSFRNDIVDDPSFLNRHNSKGLAETTFKAISGASVSANVSTARTGNQMALCSSDVLEPAASFESTSSFASIPLQPLPRGGSGPLNGFMSGPLERGFASGPLDRNNGFMSGPIEKGVMSGPLDVSDRSNFSAPLSFRRKKPRFQRFMRSVSGPMKSTLARTFSRRSGGLSWMHRFFLHPETRVSWAVGKDGKLHGEDPESCLESNRNLQWAHGKAGEDRVHVVLSEEQGWLFIGIYDGFSGPDAPDFVMSHLYKAIDKELEGLLWDYEEPSEDNQLQPDQEPPTEENMCDPESISEQHSKSVVAESEEVMIDDISSLGNTDTQIADGPPGDSAGPGKKSMRLYELLQLEQWEGEEIGLKRYGGNVALNNMTNQVENPSTSGGGAGNDPCTTDRSALDGIPNSGQRHGTKKSQISSKIRRMYQKQKSLRKKLFPWSYDWHREEGICVEEKIVESSGPIRRRWSGTVDHDAVLRAMARALESTEEAYMDMVEKSLDINPELALMGSCVLVMLMKDQDVYVMNVGDSRAILAQERLHDRHSNPGFGNDEGIGHKSRSRESLVRIELDRISEESPIHNQATPISVSNKNRDVTSYRLKMRAVQLSSDHSTSVEEEIWRIRSEHPEDDQSILKDRVKGQLKVTRAFGAGFLKKPNFNEALLEMFQVEYIGTDPYITCEPCTVHHRLTSSDRFMVLSSDGLYEYFSNEEVVAHVTWFIENVPEGDPAQYLIAELLSRAATKNGMEFHDLLDIPQGDRRKYHDDVSVMVVSLEGRIWRSSGQYYPERKQKFNR

binding [3]: binds
binding [4]: binds
B2: PO…-LIKE 4 (PLL4), HA-tagged (enzyme, UniProt Q9ZV25 1-654)
chain: MGNGIGKLSKCLTGGAGRNKKPELSILEPDPLDEGLGHSFCYVRPDPTRVSSSKVHSEEETTTFRTISGASVSANTATPLSTSLYDPYGHIDRAAAFESTTSFSSIPLQPIPRSSGPIVPGSGPLERGFLSGPIERGFMSGPLDGSSGPIDGKTGSDQFQRSFSHGLANLRVGSRKGSLVRVLRRAISKTITRGQNSIVAPIKPVKEPDWVFGSDKTRIHQIENNLTVNSLNFSSEGSLLDDDVSLESQNLQWAQGKAGEDRVHVVVSEEHGWLFVGIYDGFNGPDAPDYLLSHLYPAVHRELKGLLWDDPKTDAKSSDEADVENRDSSSEKKSKNWEESQRRWRCEWDRDLDRLLKDRSNGLDLDPDPNSSDVLKALSQALRKTEEAYLENADMMLDENPELALMGSCVLVMLMKGEDVYLMNVGDSRAVLGQKAESDYWIGKIKQDLERINEETMNDFDGCGDGEGASLVPTLSAFQLTVDHSTNVEEEVNRIRKEHPDDASAVSNERVKGSLKVTRAFGAGFLKQPKWNNALLEMFQIDYKGTSPYINCLPSLYHHRLGSKDQFLILSSDGLYQYFTNEEAVSEVELFITLQPEGDPAQHLVQELLFRAAKKAGMDFHELLEIPQGERRRYHDDVSIVVISLEGRMWKSCV

binding [3]: binds
binding [4]: binds
B3: PO…-LIKE 5 (PLL5), HA-tagged (enzyme, UniProt Q9LQN6 1-662)
chain: MGNGVTKLSICFTGGGGERLRPKDISVLLPDPLDEGLGHSFCYVRPDPTLISSSKVHSEEDTTTTTFRTISGASVSANTATPLSTSLYDPYGHIDRAAAFESTTSFSSIPLQPIPKSSGPIVLGSGPIERGFLSGPIERGFMSGPLDRVGLFSGPLDKPNSDHHHQFQRSFSHGLALRVGSRKRSLVRILRRAISKTMSRGQNSIVAPIKSVKDSDNWGIRSEKSRNLHNENLTVNSLNFSSEVSLDDDVSLENQNLQWAQGKAGEDRVHVVVSEEHGWLFVGIYDGFNGPDAPDYLLSHLYPVVHRELKGLLWDDSNVESKSQDLERSNGDESCSNQEKDETCERWWRCEWDRESQDLDRRLKEQISRRSGSDRLTNHSEVLEALSQALRKTEEAYLDTADKMLDENPELALMGSCVLVMLMKGEDIYVMNVGDSRAVLGQKSEPDYWLAKIRQDLERINEETMMNDLEGCEGDQSSLVPNLSAFQLTVDHSTNIEEEVERIRNEHPDDVTAVTNERVKGSLKVTRAFGAGFLKQPKWNNALLEMFQIDYVGKSPYINCLPSLYHHRLGSKDRFLILSSDGLYQYFTNEEAVSEVELFITLQPEGDPAQHLVQELLFRAAKKAGMDFHELLEIPQGERRRYHDDVSIVVISLEGRMWKSCV
